Experimental data from paper PMC10163288.
The list shows a part of the results.

B1: il10ra_site1_sap_31_mot_HHH_b2_03434_000000017_0001_1_19_H_._HHH_b1_05597_0001_0000700032_0000001_0_0001 (protein)
chain: SLEEELERLLRELGVPPELIRLLELAFRVQRRQGVPPEDVLRALLYFLEAAGDPAREAVRELLER
B2: il10ra_site1_normal_mot_HHH_b2_06786_000000018_0001_41_57_H_._HHH_b1_03836_af2_0001_0000300012_0000002_0 (protein)
chain: SSSSSSDFAEIAAEAARIAFRLSDPELLQEVWELFRRYIEEGDERYEEELERLLEEIGSSSSSSS
B3: il10ra_site1_normal_mot_HHH_b2_00984_000000042_0001_1_20_H_._HHH_b2_00680_af2_0001_0000100001_0000001_0 (protein)
chain: SSSSSSDAEEEARELIEEAEQIEDEEEAVEILAEAVRLALRAGNAELLQEIWKAIKEISSSSSSS
B4: il10ra_site1_sap_22_mot_HHH_b1_02420_000000033_0001_20_36_H_._HHH_b2_07350_0001_0000700038_0000002_0_0001 (protein)
chain: SIEELVRLIVELAGAPPEVERQLQLTVRAAQDLSPFASEWMQRELEEVIENNDEEAAEEIIRYFK
B5: il10ra_site1_sap_21_mot_5fda0655e6834f3f331eaa9f580e88ed_0001_af2_000000239_0001_36_50_H_._HHH_b2_05691_0001_0000700031_0000001_0_0001 (protein)
chain: SSSDEAYEAAKRAIERAIELARNGDPEEAQELLREAIELAEELNTQAARWSLEHLLKLIEQSSSS
B6: il10ra_site1_sap_12_mot_HHH_b2_00092_000000181_0001_22_39_H_._HHH_b2_07100_0001_0000300011_0000002_0_0001 (protein)
chain: SSSSDANEEIYKLIRRALEALANGNPEEAEELLREAEELAREANSPIMEFAIRTAQRNVKSSSSS
B7: il10ra_site1_sap_25_mot_HHH_b2_01760_000000115_0001_41_54_H_._f66b54841b0899907a24864da6a818e8_0001_0001_0000100001_0000001_0_0001 (protein)
chain: SSSSSEEEEELRELLEEIRRAAEEGDQELVVRLTLEASRLALESGDQELLHEIWRLFVELTSSSS
B8: il10ra_site1_normal_mot_HHH_b2_00475_000000107_0001_44_57_H_._HHH_b2_03520_0001_0000400025_0000001_0 (protein)
chain: SSSSDEEEVSHLLFRALQLLEEGDKEEAEELVEEAKRIAEESNDPELERYVEIAEHFVKAHSSSS
B9: il10ra_site1_sap_14_mot_HHH_b1_05329_000000008_0001_43_56_H_._HHH_b2_01366_0001_0000200013_0000001_0_0001_af2pred_0001 (protein)
chain: SSSSDEEQAKRLVEFLLKAARELEDPERRKLTLRDAKHAAEAIGDEELRELVEEVEEELRSSSSS
B10: il10ra_site1_normal_mot_HHH_b2_03708_000000000_0001_1_18_H_._HHH_b1_01365_0001_0000200017_0000001_0 (protein)
chain: SSSSDEEIQRVSELSLRIFRLLLRGNEEEARELLEEAIELAQEIGDEQLLRVLEHLLQVASSSSS
B11: il10ra_site1_sap_15_mot_HHH_b1_02881_000000046_0001_1_20_H_._HHH_b1_00963_af2_0001_0000300030_0000001_1_0001 (protein)
chain: SSSSSEEEEEAEELLKEVQRLIEEGNDEEALELIQEALELVIQLGDEEKLQRLWELVKAISSSSS
B12: il10ra_site1_sap_25_mot_HHH_b1_05254_000000006_0001_1_19_H_._HHH_b1_06224_0001_0000400029_0000001_0_0001 (protein)
chain: SSSSDLRRRLYELLRKIAELIHEGNEEEARELIEEAQEVAEEAGNDVARAQLEYLERHLNSSSSS
B13: il10ra_site1_sap_15_mot_HHH_b2_07006_000000108_0001_1_19_H_._HHH_b2_04667_0001_0000300007_0000001_0_0001_af2pred_0001 (protein)
chain: SSSSSSEQETRAIRLLLETSLEAGDEEALKKLLRAAKRIAKLANDPELQRLIEEIEEELSSSSSS
B14: il10ra_site1_normal_mot_HHH_b2_02262_af2_000000007_0001_40_53_H_._429e03ef57af3a05afeb6c1314328484_0001_1_af2_0001_0000500025_0000001_0 (protein)
chain: DEELLREILEKLKKVPDPEVRELAEEAEELLERGNPERAAQVLIRAIFLAGDPELLKLLWEANKK
B15: il10ra_site1_sap_24_mot_HHH_b1_01879_000000050_0001_1_18_H_._HHH_b1_03413_af2_0001_0000900032_0000002_0_0001_af2pred_dldesign_0_af2pred (protein)
chain: SSSSDAARARAAALRRRVTKAAEAKNYEELEKLLKELEALAKATDDADLLAYVDFEKKALSSSSS
B16: il10ra_site1_normal_mot_HHH_b1_05357_000000034_0001_23_39_H_._HHH_b2_03710_0002_0000200007_0000001_0 (protein)
chain: SSSSDREEFRERVEELLEEAEQISDRQRVSHLLIRAYALAHQANDPELEELVREVAKELVSSSSS
B17: il10ra_site1_sap_24_mot_HHH_b1_04177_000000174_0001_1_19_H_._HHH_b1_03006_0001_0000300020_0000001_0_0001_af2pred_0001 (protein)
chain: SSSSSHEEVFRLLREIAELDHEGDHERARELLEEAQEIAEEAGNLLFRVILEFLQEHLERESSSS
B18: il10ra_site1_sap_19_mot_HHH_b1_03314_af2_000000278_0001_42_55_H_._HHH_b1_07800_0001_0000100003_0000001_0_0001 (protein)
chain: SSSSSDVEELMKELALLSRRVSPEEQELIFQILMEAYHLLANGNPEEAKKLLEEALEELSSSSSS
B19: il10ra_site1_normal_mot_HHH_b2_02927_000000097_0001_42_56_H_._HHH_b2_00498_0001_0000200027_0000001_1 (protein)
chain: SSSSDEEEEEVEELLEEAKHIEDPRERARVLQEASHLALRAGDPEALQLVWRVVKELARRSSSSS
B20: il10ra_site1_sap_23_mot_HHH_b1_02997_000000220_0001_39_52_H_._HHH_b2_02338_af2_0001_0001000022_0000001_0_0001_af2pred_0001 (protein)
chain: SSSSDVEERVEELAKEVEELLENGNPHEAIQVIREIARLAAENNDDEALKIARELLKLVFSSSSS
B21: il10ra_site1_normal_mot_HHH_b2_07569_000000265_0001_38_56_H_._HHH_b2_03475_af2_0001_0000200009_0000001_1 (protein)
chain: SSSSSDEEEELEELLEELKKISDPEEASEVAARALRLAFRLGDPEAVQEIWEVFKKIFEGSSSSS
B22: il10ra_site1_normal_mot_HHH_b2_00092_000000181_0001_22_39_H_._HHH_b2_05043_0001_0000300048_0000003_0 (protein)
chain: SSSSAEESFELARRAVELVIRLYKEGNPEEAEKVVEEVKRELEELGNPLAARQLEALRRILSSSS
B23: il10ra_site1_normal_mot_HHH_b2_00441_000000147_0001_1_18_H_._HHH_b1_03059_0001_0000200008_0000001_0_af2pred_0001 (protein)
chain: SSSSTREAARIALHAVRRAFELGDEEFIRRSARFVRWLYEETGDPEVEEALEEIEELLERLSSSS
B24: il10ra_site1_normal_mot_HHH_b2_06767_000000020_0001_41_56_H_._HHH_b2_06012_0001_0000100001_0000001_0 (protein)
chain: SSSSSFEEAAQLQLRVSRAADEGDEELLEELRKELEELLKKLDDERARLAVRFALRLIEAHSSSS
B25: il10ra_site1_normal_mot_HHH_b1_00103_000000293_0001_1_15_H_._HHH_b1_01742_0001_0000100001_0000002_0 (protein)
chain: SSSSDTLEFSVEFALRHAERLLEEGDREKAELILEAILRHVREANNEELLEEIERLLEEVRSSSS
B26: il10ra_site1_sap_21_mot_HHH_b1_06912_af2_000000235_0001_1_15_H_._HHH_b1_06747_af2_0001_0000100002_0000001_1_0001_af2pred_0001 (protein)
chain: SDEELELAIKLAIEKNADPPSVEISVENNEIEVTVHGTDEAAREAETTVRAIAFFAGIPVEVERR
B27: il10ra_site1_normal_mot_5d0551e3c4357af680d60aaa850e4cea_0001_1_af2_000000133_0001_18_33_H_._HHH_b1_00482_0001_0000300004_0000002_0_af2pred_0001 (protein)
chain: SSSSSKLQQLVKALLRLVRQARNEELRETAKLSLKVLKEIAEELNDEEAEELLEEAEELLKSSSS
B28: il10ra_site1_normal_mot_HHH_b2_03220_af2_000000223_0001_23_40_H_._HHH_b1_05042_0001_0000100015_0000001_0 (protein)
chain: SSSSSRELSEEAWELLREILELIYEGDEERAQELLREVEEIAEEANSFALEYTVRILKEQLSSSS
B29: il10ra_site1_sap_16_mot_HHH_b1_06789_af2_000000041_0001_1_20_H_._HHH_b1_08320_0001_0000500022_0000001_0_0001 (protein)
chain: PVNEVIQRLVRLAFREGDPELLHALWKLVKRAAEGDPEAEELLEEVAELLKKDEEEAKRLLKELG
B30: il10ra_site1_sap_12_mot_HHH_b1_05357_000000034_0001_23_39_H_._HHH_b1_02159_0001_0000100003_0000001_0_0001 (protein)
chain: SSSSDARREIYELLREAVELDLEGNPEEAEEVLREAEELAREAGDRLFLAIVEYLQRILNSSSSS
B31: il10ra_site1_normal_mot_HHH_b1_05587_000000266_0001_24_40_H_._HHH_b2_08203_0001_0000100001_0000001_0_af2pred_0001 (protein)
chain: SSSSSSDEEHLKAAKRLLELAVKQGNEQLIEVAARAAKRIAELLNDEETLEEIEKILEEYSSSSS
B32: il10ra_site1_normal_mot_HHH_b2_06255_000000043_0001_1_20_H_._HHH_b2_08380_af2_0001_0000100007_0000001_0 (protein)
chain: SSSSSDELFKEVRRAIELASELKENGNPEEARELLEEVLELAEELGNFAVRFSIRRLLRALSSSS
B33: il10ra_site1_normal_mot_HHH_b1_06786_000000000_0001_1_20_H_._HHH_b1_00599_0001_0000200010_0000002_0_af2pred_0001 (protein)
chain: SSSSNRAEVSQEVIRLLREAFEIEDEEEAREIVEEAVRLAQEGNNLVLRISAELVLRQLRSSSSS
B34: il10ra_site1_normal_mot_HHH_b2_08186_000000021_0001_43_56_H_._HHH_b2_06182_af2_0001_0000600026_0000001_0 (protein)
chain: SSSSDEAEKEVRELIEEAEELAERGNPHEAARVLQEALRIAFEAKDDELLRLLWEVLKRLSSSSS
B35: il10ra_site1_sap_22_mot_HHH_b2_06199_000000213_0001_1_17_H_._HHH_b2_07920_0001_0000300012_0000001_0_0001 (protein)
chain: SEDVEEIEELLKRNVSRAIAALAHLLARSGDPEALKLAMELARLMFRDPEKARKLVEQILEELKK
B36: il10ra_site1_normal_mot_HHH_b1_01731_af2_000000210_0001_41_56_H_._HHH_b1_06757_af2_0001_0000500021_0000002_0 (protein)
chain: SSSDARLLRFASRVILELSEEFNLSQEQLRALAEVLLELLRRGVSEEEIEEILRQVAEELGSSSS
B37: il10ra_site1_normal_mot_HHH_b2_03434_000000017_0001_1_19_H_._HHH_b2_02344_0001_0000400063_0000001_0 (protein)
chain: SSSSSENDELYELLRELIRLASEGDEEKVEELAEEAKELAEKLNSRVLLELIEWVLRMFNSSSSS
B38: il10ra_site1_normal_mot_HHH_b1_06994_000000193_0001_40_55_H_._HHH_b2_08260_0001_0000100002_0000002_0 (protein)
chain: SSSSSSDEVEELAEEARRLAEEEGDEERAELVEAALRLYEQVGSEAFREALEAILRILSSSSSSS

These binders were tested against il10ra, Q13651 (assay: yeast display titration).

Apparent Kd, inactive:
B1 no binding seen, B2 no binding seen, B3 no binding seen, B4 no binding seen, B5 no binding seen, B6 no binding seen, B7 no binding seen, B8 no binding seen, B9 no binding seen, B10 no binding seen, B11 no binding seen, B12 no binding seen, B13 no binding seen, B14 no binding seen, B15 no binding seen, B16 no binding seen, B17 no binding seen, B18 no binding seen, B19 no binding seen, B20 no binding seen, B21 no binding seen, B22 no binding seen, B23 no binding seen, B24 no binding seen, B25 no binding seen, B26 no binding seen, B27 no binding seen, B28 no binding seen, B29 no binding seen, B30 no binding seen, B31 no binding seen, B32 no binding seen, B33 no binding seen, B34 no binding seen, B35 no binding seen, B36 no binding seen, B37 no binding seen, B38 no binding seen
